The target of this assay is T1, His-tagged CrIFT172_(968-C) (Chlamydomonas reinhardtii) (UniProt Q5DM57).
T1 sequence: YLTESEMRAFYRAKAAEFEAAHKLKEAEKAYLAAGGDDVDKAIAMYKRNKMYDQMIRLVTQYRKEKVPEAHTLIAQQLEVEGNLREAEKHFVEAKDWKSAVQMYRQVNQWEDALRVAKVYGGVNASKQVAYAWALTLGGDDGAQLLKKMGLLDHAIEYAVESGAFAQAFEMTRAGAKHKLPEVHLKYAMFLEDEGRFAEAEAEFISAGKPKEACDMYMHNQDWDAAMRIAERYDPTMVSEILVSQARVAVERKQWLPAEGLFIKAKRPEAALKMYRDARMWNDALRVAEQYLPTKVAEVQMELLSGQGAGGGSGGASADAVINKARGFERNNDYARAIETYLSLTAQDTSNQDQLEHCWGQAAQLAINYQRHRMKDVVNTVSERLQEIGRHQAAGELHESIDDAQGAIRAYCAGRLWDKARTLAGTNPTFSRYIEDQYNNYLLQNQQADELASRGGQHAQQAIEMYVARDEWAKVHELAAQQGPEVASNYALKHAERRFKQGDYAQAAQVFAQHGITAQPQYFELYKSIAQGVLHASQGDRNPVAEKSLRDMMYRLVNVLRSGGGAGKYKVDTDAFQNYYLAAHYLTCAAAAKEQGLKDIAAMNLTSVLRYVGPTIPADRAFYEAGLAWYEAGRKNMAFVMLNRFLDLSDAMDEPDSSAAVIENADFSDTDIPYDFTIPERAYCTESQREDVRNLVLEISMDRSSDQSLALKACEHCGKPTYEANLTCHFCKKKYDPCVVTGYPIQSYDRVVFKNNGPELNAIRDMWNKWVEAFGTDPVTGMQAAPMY
In words: affinity purification with mass spectrometry; 30 μM His-CrIFT172_(968-C) immobilised on TALON beads, incubated with 1 mg C. reinhardtii flagella extract in HMSK buffer (10 mM HEPES pH 7.4, 5 mM MgSO4, 4% sucrose, 25 mM KCl) at 4 °C for 2 hr; washed with 30 mM imidazole, eluted with 300 mM imidazole; His-TEV protease as control; TMT mass spectrometry, hits FDR <5% and fold-change ≥100%; only the target purified.

Protein sequences, listed by entry. Tags and fused reporters are not part of them.
UniProt A0A2K3DQG3: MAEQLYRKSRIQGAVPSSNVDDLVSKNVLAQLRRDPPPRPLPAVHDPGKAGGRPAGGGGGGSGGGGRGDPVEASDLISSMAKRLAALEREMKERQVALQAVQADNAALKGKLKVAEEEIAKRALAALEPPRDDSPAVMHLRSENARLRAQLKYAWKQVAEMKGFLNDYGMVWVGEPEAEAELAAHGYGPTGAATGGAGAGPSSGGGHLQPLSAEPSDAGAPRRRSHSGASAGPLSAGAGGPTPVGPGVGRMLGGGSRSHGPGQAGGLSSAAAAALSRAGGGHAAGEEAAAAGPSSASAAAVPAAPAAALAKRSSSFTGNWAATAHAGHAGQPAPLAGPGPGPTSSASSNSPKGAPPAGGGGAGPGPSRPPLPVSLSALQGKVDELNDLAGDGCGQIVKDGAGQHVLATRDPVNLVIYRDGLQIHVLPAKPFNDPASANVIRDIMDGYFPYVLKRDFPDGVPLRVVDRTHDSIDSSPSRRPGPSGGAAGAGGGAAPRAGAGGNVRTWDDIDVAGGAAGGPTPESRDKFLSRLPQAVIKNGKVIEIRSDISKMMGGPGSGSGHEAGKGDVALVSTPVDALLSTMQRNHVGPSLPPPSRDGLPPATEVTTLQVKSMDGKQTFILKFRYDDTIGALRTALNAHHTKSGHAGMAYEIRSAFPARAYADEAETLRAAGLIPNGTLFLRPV

Binding data for 1 substance are collected here from paper PMC13290226.

No constants are given. Whether binding was seen depends on the method and setting. Binding seen in cells or lysates may run through a third protein. A yes stands for co-enrichment or nearness to the bait. Other partners may have been found. Where a sequence is shown, tags or fusion partners need not be part of it.

For the substance “UBX-domain containing protein (CHLRE_06g293900v5) (from UniProt A0A2K3DQG3 1-684)”, the binding entry was “binds”.
